Data taken from patent EP0779076A1 (priority 1994, dated 1996).

Assay: general procedure: solution-phase peptide synthesis; isobutylchloroformate/N-methylmorpholine (mixed anhydride); dicyclohexylcarbodii
Conditions: coupling step

Row | Substance | step yield
1 | BOC-Arg(NO2)-Tyr-D-Ala-Phe-Gly-oBzl | 87.2%
2 | BOC-Tyr(Bzl)-D-Orn(Z)-Phe-D-Glu(OBzl)2 | 93.2%
3 | BOC-Tyr-(BOC)-D-Ala-Phe-Gly-oBzl | 83.4%
4 | Boc-Y(Bn)[dOrn](Cbz)F[dA]-OH | 82.0%
5 | Z3-Arg-Tyr(Bzl)-D-Orn(Z)-Phe-D-Ala-OH | 92.0%

Same assay, conditions: late stage modification step

Row | Substance | step yield
6 | H-Y[Orn]F[dE]-OH | 98.8%
7 | PEPTIDE1{R.Y.[dA].F.G}$$$$V2.0 | 100%
8 | PEPTIDE1{R.Y.[dOrn].F.[dA]}$$$$V2.0 | 80.8%
9 | PEPTIDE1{R.Y.[dR].F.[dA]}$$$$V2.0 | 76.9%
10 | TFA·H-Tyr(Bzl)-D-Orn(Z)-Phe-D-Ala-OH | 100%
11 | TFA·Tyr-D-Ala-Phe-Gly-oBzl | 100%

HELM strings list residues between dots; [ac] is acetyl, [am] amide, other brackets name non-standard units. Non-standard residues stand in square brackets, D forms with d. *: point of attachment. dOrn = NCCC[C@@H](N)C(=O)O; Orn = NCCC[C@H](N)C(=O)O; Cbz = O=C(OCc1ccccc1)*; Boc = CC(C)(C)OC(=O)*; Bn = c1ccc(C*)cc1
